# Source: US20240350654A1, “NANOCARRIERS FOR TARGETED DELIVERY OF THERAPEUTICS” (Northwestern University, priority 2023, published 2024)
# Tests used:
# Type in all cases: cell-based
# [1] = test system: ROSA human mast cell line (FIG. 1A); test: MTT assay, ROSA mast cell line (FIG. 1A); conditions: n=3, read-out: IC50 (cell viability, MTT)
# [2] = test system: ROSA human mast cell line (FIG. 1B); test: MTT assay, ROSA mast cell line (FIG. 1B); conditions: n=2, read-out: IC50 (cell viability, MTT)
# [3] = test system: LUVA human mast cells; test: MTT assay, LUVA mast cells (FIG. 1C); conditions: Mast cell, n=3, read-out: IC50 (cell viability, MTT)
# [4] = test system: Primary human skin mast cells; test: MTT assay, primary human skin mast cells (FIG. 1D); conditions: Mast cell, n=2, read-out: IC50 (cell viability, MTT)
smiles,measurement,setting,value
CO[C@@H]1[C@H](N(C)C(=O)c2ccccc2)C[C@H]2O[C@]1(C)n1c3ccccc3c3c4c(c5c6ccccc6n2c5c31)C(=O)NC4 [midostaurin],IC50,[1],0.68 µg/mL
same,IC50,[2],1.37 µg/mL
same,IC50,[3],4.1 µg/mL
same,IC50,[4],1.5 µg/mL
